In article PMC9406782 one finds binding data, which are given here for 2 substances.

The chains behind the UniProt entries cited, without tags or fusion partners. Residues count along the entry.
UniProt P19022, residues 160-906: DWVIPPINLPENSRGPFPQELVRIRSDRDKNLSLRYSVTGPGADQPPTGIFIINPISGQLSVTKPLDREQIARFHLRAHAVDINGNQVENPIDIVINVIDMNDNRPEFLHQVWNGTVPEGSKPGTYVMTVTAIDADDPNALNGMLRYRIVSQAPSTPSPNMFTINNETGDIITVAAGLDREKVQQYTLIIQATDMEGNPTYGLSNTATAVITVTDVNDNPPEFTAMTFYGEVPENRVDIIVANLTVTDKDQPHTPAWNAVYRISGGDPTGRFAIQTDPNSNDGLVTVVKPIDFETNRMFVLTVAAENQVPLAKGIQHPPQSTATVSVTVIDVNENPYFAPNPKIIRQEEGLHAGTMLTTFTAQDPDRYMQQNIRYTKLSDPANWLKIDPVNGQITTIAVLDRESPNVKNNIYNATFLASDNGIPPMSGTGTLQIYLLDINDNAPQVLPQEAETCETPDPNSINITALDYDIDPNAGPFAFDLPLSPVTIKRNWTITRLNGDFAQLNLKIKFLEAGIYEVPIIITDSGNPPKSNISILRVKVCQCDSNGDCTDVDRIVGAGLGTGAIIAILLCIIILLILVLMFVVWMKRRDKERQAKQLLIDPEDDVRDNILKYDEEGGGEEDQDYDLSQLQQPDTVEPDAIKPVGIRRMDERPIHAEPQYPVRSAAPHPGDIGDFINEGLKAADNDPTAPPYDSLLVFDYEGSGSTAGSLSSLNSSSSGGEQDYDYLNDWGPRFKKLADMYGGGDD
UniProt P35221: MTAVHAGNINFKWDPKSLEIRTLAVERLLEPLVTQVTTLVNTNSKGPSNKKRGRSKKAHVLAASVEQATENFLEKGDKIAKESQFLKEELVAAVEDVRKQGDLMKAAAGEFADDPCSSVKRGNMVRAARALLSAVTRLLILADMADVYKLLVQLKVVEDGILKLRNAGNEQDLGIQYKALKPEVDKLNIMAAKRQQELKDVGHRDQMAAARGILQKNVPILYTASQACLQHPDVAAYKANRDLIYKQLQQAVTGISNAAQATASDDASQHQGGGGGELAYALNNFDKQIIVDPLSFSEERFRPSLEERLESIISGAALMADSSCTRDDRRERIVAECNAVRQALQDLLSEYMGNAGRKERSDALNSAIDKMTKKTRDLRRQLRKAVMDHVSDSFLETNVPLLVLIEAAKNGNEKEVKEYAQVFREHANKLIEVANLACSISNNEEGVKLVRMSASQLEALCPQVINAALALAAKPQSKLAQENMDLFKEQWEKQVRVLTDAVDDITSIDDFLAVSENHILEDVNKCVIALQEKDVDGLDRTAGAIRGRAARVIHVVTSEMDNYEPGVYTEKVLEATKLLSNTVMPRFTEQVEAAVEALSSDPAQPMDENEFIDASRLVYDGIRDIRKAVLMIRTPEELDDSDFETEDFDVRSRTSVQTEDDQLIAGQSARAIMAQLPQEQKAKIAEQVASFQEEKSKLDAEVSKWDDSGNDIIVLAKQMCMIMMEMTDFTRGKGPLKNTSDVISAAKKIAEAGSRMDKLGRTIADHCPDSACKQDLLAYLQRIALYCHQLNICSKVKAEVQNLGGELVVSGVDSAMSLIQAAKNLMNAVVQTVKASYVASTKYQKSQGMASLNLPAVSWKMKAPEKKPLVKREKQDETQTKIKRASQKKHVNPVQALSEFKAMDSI
UniProt P35222: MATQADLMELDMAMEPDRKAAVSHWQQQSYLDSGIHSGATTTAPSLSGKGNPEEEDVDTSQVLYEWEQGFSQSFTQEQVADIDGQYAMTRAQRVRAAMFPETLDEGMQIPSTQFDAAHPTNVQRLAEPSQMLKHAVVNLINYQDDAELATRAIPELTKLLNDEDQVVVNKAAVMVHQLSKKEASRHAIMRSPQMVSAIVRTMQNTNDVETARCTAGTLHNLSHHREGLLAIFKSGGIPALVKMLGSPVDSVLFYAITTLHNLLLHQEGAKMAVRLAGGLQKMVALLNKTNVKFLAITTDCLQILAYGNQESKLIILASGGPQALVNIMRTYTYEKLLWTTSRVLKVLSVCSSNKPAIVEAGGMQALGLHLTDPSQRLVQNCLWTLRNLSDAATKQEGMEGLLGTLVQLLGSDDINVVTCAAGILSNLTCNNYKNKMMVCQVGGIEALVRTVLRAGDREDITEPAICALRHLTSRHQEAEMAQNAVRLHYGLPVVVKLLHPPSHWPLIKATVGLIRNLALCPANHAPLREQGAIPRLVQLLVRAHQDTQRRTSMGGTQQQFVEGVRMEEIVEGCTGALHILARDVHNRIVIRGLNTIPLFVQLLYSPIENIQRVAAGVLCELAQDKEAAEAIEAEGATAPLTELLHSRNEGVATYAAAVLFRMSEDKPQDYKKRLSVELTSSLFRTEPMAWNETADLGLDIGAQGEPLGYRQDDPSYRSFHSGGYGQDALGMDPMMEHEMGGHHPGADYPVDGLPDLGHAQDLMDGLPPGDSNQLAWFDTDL

No constants are given. Whether binding was seen depends on the method and setting. Binding seen in cells or lysates may run through a third protein. Some binding calls cover weakened binding; strength is not graded here.

The target of the experiment is N-cadherin (human (endogenous in PLC cells and in human HCC tissue)) (UniProt P19022). The experiment can be described thus: co-IP; whole-cell lysates of PLC cells; 1% Triton X-100, RIPA or Empigen immunoprecipitation buffers (150 mM NaCl, 5 mM EDTA or 0.5 mM CaCl2); antibodies against E- or N-cadherin on protein G/A magnetic beads, 4 °C overnight; SDS-PAGE and immunoblot; unrelated mouse myeloma IgG1 as control. Background: In western blotting, separated proteins are transferred to a membrane and probed.

With α-catenin (from UniProt P35221 1-906), the binding entry is given as “binds”.
Next, β-catenin (from UniProt P35222 1-781): “binds”.
